Taken from: PubChem BioAssay AID1259260 (Sanger Institute, 2017)
In all, the deposit lists 794 reagents; below is a part drawn at random. Over the whole deposit, 13 (1.6%) are marked active. 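Calls reflect only knock-down without drug; synergy above 0.15 was grouped apart and does not change the call.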 Unmarked entries are inactive. Not all columns of the deposit are shown. The record does not give: the amount of reagent, the time to read-out.

Aim: 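Kinases whose knock-down kills colorectal cancer cells or boosts drug effects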 (primary screen)
System: human NCI-H716 colorectal cancer cells
Knock-down reagent: siRNA pool against human genes
Treatment: anchor drugs BYL719 (alpelisib) 1 µM, cetuximab 5 µg/ml or trametinib 10 nM, each at a dose chosen to harm viability only mildly; DMSO vehicle for the knock-down-alone arm
Read-out: 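Replicate-averaged viability relative to a non-targeting pool, a robust z-score for knock-down alone, and a synergy score per anchor drug versus each agent alone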
Scale: viability robust z-score, siRNA alone: higher = more surviving cells; below -3 called essential
Call rule: 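Essential when the robust z-score for knock-down alone falls below -3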
Calls: active = essential (knock-down alone lowers viability); inactive = no essential effect

{"gene knocked down":"MARK2 (GeneID 2011)","viability robust z-score, siRNA alone":-0.882}
{"gene knocked down":"EFNA4 (GeneID 1945)","viability robust z-score, siRNA alone":-0.694}
{"gene knocked down":"PLK3 (GeneID 1263)","viability robust z-score, siRNA alone":0.602}
{"gene knocked down":"MAP3K8 (GeneID 1326)","viability robust z-score, siRNA alone":0.602}
{"gene knocked down":"IRAK3 (GeneID 11213)","viability robust z-score, siRNA alone":-2.29}
{"gene knocked down":"PDK3 (GeneID 5165)","viability robust z-score, siRNA alone":0.492}
{"gene knocked down":"MGA (GeneID 23269)","viability robust z-score, siRNA alone":-2.31}
{"gene knocked down":"CDK2 (GeneID 1017)","viability robust z-score, siRNA alone":0.602}
{"gene knocked down":"DBF4 (GeneID 10926)","viability robust z-score, siRNA alone":0.602}
{"gene knocked down":"PDK1 (GeneID 5163)","viability robust z-score, siRNA alone":0.602}
{"gene knocked down":"CDK8 (GeneID 1024)","viability robust z-score, siRNA alone":0.602}
{"gene knocked down":"PRKG2 (GeneID 5593)","viability robust z-score, siRNA alone":0.602}
{"gene knocked down":"ACVR2B (GeneID 93)","viability robust z-score, siRNA alone":0.602}
{"gene knocked down":"CREBBP (GeneID 1387)","viability robust z-score, siRNA alone":-0.0974}
{"gene knocked down":"LATS2 (GeneID 26524)","viability robust z-score, siRNA alone":0.602}
{"gene knocked down":"MAP3K14 (GeneID 9020)","viability robust z-score, siRNA alone":-0.118}
{"gene knocked down":"EPHA8 (GeneID 2046)","viability robust z-score, siRNA alone":-1.44}
{"gene knocked down":"RSKR (GeneID 124923)","viability robust z-score, siRNA alone":0.602}
{"gene knocked down":"PRKY (GeneID 5616)","viability robust z-score, siRNA alone":-0.0455}
{"gene knocked down":"IDH2 (GeneID 3418)","viability robust z-score, siRNA alone":0.602}
{"gene knocked down":"PSTK (GeneID 118672)","viability robust z-score, siRNA alone":0.602}
{"gene knocked down":"CSK (GeneID 1445)","viability robust z-score, siRNA alone":0.0436}
{"gene knocked down":"TRIO (GeneID 7204)","viability robust z-score, siRNA alone":-0.0906}
{"gene knocked down":"MAP3K5 (GeneID 4217)","viability robust z-score, siRNA alone":0.602}
{"gene knocked down":"ROR2 (GeneID 4920)","viability robust z-score, siRNA alone":0.602}
{"gene knocked down":"AK1 (GeneID 203)","viability robust z-score, siRNA alone":-0.471}
{"gene knocked down":"KIT (GeneID 3815)","viability robust z-score, siRNA alone":0.602}
{"gene knocked down":"DLG3 (GeneID 1741)","viability robust z-score, siRNA alone":0.602}
{"gene knocked down":"ALK (GeneID 238)","viability robust z-score, siRNA alone":0.602}
{"gene knocked down":"DUSP21 (GeneID 63904)","viability robust z-score, siRNA alone":0.602}
{"gene knocked down":"CDK5R2 (GeneID 8941)","viability robust z-score, siRNA alone":-0.236}
{"gene knocked down":"PRAG1 (GeneID 157285)","viability robust z-score, siRNA alone":0.48}
{"gene knocked down":"GSK3B (GeneID 2932)","viability robust z-score, siRNA alone":0.602}
{"gene knocked down":"NR2F2 (GeneID 7026)","viability robust z-score, siRNA alone":0.103}
{"gene knocked down":"NUP107 (GeneID 57122)","viability robust z-score, siRNA alone":0.602}
{"gene knocked down":"ITSN1 (GeneID 6453)","viability robust z-score, siRNA alone":-0.232}

Looked up above:
Result of TRIO (GeneID 7204) in “viability robust z-score, siRNA alone”: -0.0906
Under “viability robust z-score, siRNA alone”, CDK8 (GeneID 1024) reads 0.602
For “viability robust z-score, siRNA alone”, PDK1 (GeneID 5163) reads 0.602
DBF4 (GeneID 10926), viability robust z-score, siRNA alone: 0.602
CSK (GeneID 1445), viability robust z-score, siRNA alone: 0.0436
